Results are given in words; binding and its absence hold for the method and conditions named. In cells and extracts the contact can be indirect. Some binding calls cover weakened binding; strength is not graded here.
Target: Smad4, HA-tagged (human (by the printed RefSeq NM_005359.5; not said in words)) (UniProt Q13485)
Assay: co-IP; HEK293T cells co-transfected with FLAG-IFITM3 and Smad4-HA; lysis buffer 20 mM MOPS pH 7.5, 0.15 M NaCl, 0.5% CHAPS, 1 mM EDTA, 1 mM DTT, protease inhibitors; anti-FLAG M2 or anti-HA with Magne Protein G beads; Western blot; with or without additional TGF-β stimulation

By UniProt entry, the sequences of proteins in these tests, tags left out.
UniProt Q13485: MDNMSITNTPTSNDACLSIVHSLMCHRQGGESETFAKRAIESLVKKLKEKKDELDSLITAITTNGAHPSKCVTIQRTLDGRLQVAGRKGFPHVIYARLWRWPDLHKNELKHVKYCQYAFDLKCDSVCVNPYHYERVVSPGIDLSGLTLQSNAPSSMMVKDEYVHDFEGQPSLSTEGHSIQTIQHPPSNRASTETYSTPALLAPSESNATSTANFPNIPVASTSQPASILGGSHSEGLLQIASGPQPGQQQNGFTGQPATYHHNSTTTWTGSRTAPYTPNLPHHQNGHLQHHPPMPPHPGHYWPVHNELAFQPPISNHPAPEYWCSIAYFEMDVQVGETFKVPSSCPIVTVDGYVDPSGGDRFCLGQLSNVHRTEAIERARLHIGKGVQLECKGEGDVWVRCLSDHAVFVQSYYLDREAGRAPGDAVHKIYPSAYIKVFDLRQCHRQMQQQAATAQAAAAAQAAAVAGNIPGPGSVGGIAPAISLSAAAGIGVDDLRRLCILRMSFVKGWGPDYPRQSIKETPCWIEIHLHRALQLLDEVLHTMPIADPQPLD
UniProt Q01628: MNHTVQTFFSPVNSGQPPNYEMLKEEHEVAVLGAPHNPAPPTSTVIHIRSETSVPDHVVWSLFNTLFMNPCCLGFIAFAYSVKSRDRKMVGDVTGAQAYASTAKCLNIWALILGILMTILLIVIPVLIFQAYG

binding: binds
Substance: Interferon-inducible Transmembrane Protein 3 (IFITM3), FLAG-tagged (from UniProt Q01628 1-133)

From paper PMC6609682
